Data published in patent US12503439B2, “Heteroaryl compounds for the treatment of pain” (VERTEX PHARMACEUTICALS INCORPORATED, priority 2022, dated 2025).
Some entries share one result that the patent states for a list of compounds.

Sequences of proteins named here, by UniProt entry; tags and fusion partners are left off. Residues count along the entry.
UniProt Q9Y5Y9, 126-1722 limits assumed: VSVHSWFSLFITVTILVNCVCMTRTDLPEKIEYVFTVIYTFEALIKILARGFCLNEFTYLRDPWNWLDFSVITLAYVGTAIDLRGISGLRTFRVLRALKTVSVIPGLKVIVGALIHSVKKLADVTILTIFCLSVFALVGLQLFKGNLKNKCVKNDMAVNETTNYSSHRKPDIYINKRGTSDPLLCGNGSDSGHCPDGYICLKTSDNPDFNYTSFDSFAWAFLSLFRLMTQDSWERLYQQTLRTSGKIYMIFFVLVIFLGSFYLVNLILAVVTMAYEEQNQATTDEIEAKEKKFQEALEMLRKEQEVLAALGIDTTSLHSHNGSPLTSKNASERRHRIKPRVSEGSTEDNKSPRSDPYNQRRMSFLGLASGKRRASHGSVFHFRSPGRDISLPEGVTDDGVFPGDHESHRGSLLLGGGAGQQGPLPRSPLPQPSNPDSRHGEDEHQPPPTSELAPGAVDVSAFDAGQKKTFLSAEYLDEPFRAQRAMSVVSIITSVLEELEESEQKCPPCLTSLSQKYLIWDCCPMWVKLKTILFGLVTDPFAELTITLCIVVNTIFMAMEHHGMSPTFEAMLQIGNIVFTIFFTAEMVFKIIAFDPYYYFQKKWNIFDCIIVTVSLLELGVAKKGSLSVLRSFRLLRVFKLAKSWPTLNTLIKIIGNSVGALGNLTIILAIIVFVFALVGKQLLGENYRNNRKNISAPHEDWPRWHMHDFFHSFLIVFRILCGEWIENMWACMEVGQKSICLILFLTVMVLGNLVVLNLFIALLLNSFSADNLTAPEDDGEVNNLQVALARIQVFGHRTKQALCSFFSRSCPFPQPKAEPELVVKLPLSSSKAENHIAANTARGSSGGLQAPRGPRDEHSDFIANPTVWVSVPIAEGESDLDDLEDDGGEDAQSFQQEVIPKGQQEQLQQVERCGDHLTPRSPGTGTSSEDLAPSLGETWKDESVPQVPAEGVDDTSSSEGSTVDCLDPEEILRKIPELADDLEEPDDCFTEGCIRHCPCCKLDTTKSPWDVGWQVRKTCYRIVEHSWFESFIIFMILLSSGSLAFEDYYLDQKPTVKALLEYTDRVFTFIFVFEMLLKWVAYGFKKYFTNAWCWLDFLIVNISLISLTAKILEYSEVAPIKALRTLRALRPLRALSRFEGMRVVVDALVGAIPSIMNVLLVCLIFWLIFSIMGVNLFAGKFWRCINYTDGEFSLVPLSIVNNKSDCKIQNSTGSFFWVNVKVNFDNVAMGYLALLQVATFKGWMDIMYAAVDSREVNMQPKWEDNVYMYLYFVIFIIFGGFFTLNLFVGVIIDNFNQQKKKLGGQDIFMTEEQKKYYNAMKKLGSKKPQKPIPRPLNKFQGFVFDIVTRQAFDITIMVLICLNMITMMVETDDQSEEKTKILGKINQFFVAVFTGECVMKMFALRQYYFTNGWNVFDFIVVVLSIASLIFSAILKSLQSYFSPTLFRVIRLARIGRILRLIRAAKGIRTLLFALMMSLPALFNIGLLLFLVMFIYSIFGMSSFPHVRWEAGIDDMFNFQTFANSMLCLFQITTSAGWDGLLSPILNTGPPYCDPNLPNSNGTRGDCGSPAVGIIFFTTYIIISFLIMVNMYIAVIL

Target: truncated form of human NaV 1.8 with full channel activity (expressed in HEK cells) (Homo sapiens, UniProt Q9Y5Y9)
Test: E-VIPR assay detecting and measuring NaV inhibition properties (electrical stimulation, membrane potential FRET dyes)
Type: cell-based
Settings: HEK cells expressing truncated human NaV 1.8, KIR2.1 BacMam; 11-point dose response; 30 min compound incubation; stimulation 10 Hz for 10 s; read-out: measured IC50 value in the E-VIPR Assay

| SMILES | IC50 |
| --- | --- |
| COc1cc(F)ccc1Oc1ccc(C(F)(F)F)c(F)c1-c1cc(=O)c2c(C(N)=O)nccc2[nH]1 [Compound 154, 2-[2-fluoro-6-(4-fluoro-2-methoxy-phenoxy)-3-(trifluoromethyl)phenyl]-4-oxo-1H-1,6-naphthyridine-5-carboxamide] | < 500 nM |
| CNc1cccc2[nH]c(-c3c(Oc4ccc(F)c(F)c4C)ncc(C(F)(F)F)c3C)cc(=O)c12 [Compound 201, 2-[2-(3,4-difluoro-2-methyl-phenoxy)-4-methyl-5-(trifluoromethyl)-3-pyridyl]-5-(methylamino)-1H-quinolin-4-one] | < 500 nM |
| Cc1c(Oc2ncc(C(F)(F)F)c(C)c2-c2cc(=O)c3c(C(N)=O)nccc3[nH]2)ccc(F)c1F [Compound 42, 2-[2-(3,4-difluoro-2-methyl-phenoxy)-4-methyl-5-(trifluoromethyl)-3-pyridyl]-4-oxo-1H-1,6-naphthyridine-5-carboxamide] | < 500 nM |
| COC1CCC(c2nc(C(C)(C)C)ncc2-c2cc(=O)c3c(C(N)=O)nccc3[nH]2)CC1 (stereo not drawn) [Compound 118, 2-[2-tert-butyl-4-(4-methoxycyclohexyl)pyrimidin-5-yl]-4-oxo-1H-1,6-naphthyridine-5-carboxamide] | < 500 nM |
| Cc1c(Oc2nc3ccccc3cc2-c2cc(=O)c3cccc(F)c3[nH]2)ccc(F)c1F [Compound 18, 2-[2-(3,4-difluoro-2-methyl-phenoxy)-3-quinolyl]-8-fluoro-1H-quinolin-4-one] | < 500 nM |
| NC(=O)c1nccc2[nH]c(-c3cc4ccc(F)cc4nc3N3CCCC(F)(F)CC3)cc(=O)c12 [Compound 89, 2-[2-(4,4-difluoroazepan-1-yl)-7-fluoro-3-quinolyl]-4-oxo-1H-1,6-naphthyridine-5-carboxamide] | < 500 nM |
| Cc1c(-c2cc(=O)c3c(C(N)=O)nccc3[nH]2)c(N2CCC3(CC2)CC3)nc2ccccc12 [Compound 90, 2-[2-(6-azaspiro[2.5]octan-6-yl)-4-methyl-3-quinolyl]-4-oxo-1H-1,6-naphthyridine-5-carboxamide] | < 500 nM |
| Cc1cc(F)ccc1Oc1nc(C)c(Cl)c(C)c1-c1cc(=O)c2c(C(N)=O)nccc2[nH]1 [Compound 56, 2-[5-chloro-2-(4-fluoro-2-methyl-phenoxy)-4,6-dimethyl-3-pyridyl]-4-oxo-1H-1,6-naphthyridine-5-carboxamide] | < 500 nM |
| COc1nc(C)ccc1Oc1ncc(C(F)(F)F)c(C)c1-c1cc(=O)c2c(C(N)=O)nccc2[nH]1 [Compound 142, 2-[2-[(2-methoxy-6-methyl-3-pyridyl)oxy]-4-methyl-5-(trifluoromethyl)-3-pyridyl]-4-oxo-1H-1,6-naphthyridine-5-carboxamide] | < 500 nM |
| COC1CCC(c2cc(C(C)(C)C)ncc2-c2cc(=O)c3c(C#N)nccc3[nH]2)CC1 (stereo not drawn) [Compound 128, 2-[6-tert-butyl-4-(4-methoxycyclohexyl)-3-pyridyl]-4-oxo-1H-1,6-naphthyridine-5-carbonitrile] | < 500 nM |
| NC(=O)c1nccc2[nH]c(-c3cc4c(nc3N3CCCC(F)(F)CC3)CCCC4)cc(=O)c12 [Compound 97, 2-[2-(4,4-difluoroazepan-1-yl)-5,6,7,8-tetrahydroquinolin-3-yl]-4-oxo-1H-1,6-naphthyridine-5-carboxamide] | < 500 nM |
| Cc1cc(-c2[nH]c3ccccc3c(=O)c2C)c(N2CCCC(F)(F)CC2)nc1C(F)(F)F [Compound 76, 2-[2-(4,4-difluoroazepan-1-yl)-5-methyl-6-(trifluoromethyl)-3-pyridyl]-3-methyl-1H-quinolin-4-one] | < 500 nM |
| Cc1c(Oc2ncc(C(F)(F)F)c(C)c2-c2cc(=O)c3c(N)nccc3[nH]2)ccc(F)c1F [Compound 169, 5-amino-2-[2-(3,4-difluoro-2-methyl-phenoxy)-4-methyl-5-(trifluoromethyl)-3-pyridyl]-1H-1,6-naphthyridin-4-one] | < 500 nM |
| C=C(C)c1c(-c2c(C)cc(C(C)(C)C)cc2Oc2ccc(F)cc2OC)[nH]c2ccccc2c1=O (single isomer, unassigned) [Compound 332, 2-[4-tert-butyl-2-(4-fluoro-2-methoxy-phenoxy)-6-methyl-phenyl]-3-isopropenyl-1H-quinolin-4-one] | < 500 nM |
| COC1CN(c2nc3ccccc3cc2-c2cc(=O)c3c(C(N)=O)nccc3[nH]2)CC1C(F)(F)F (single isomer, unassigned) [Compound 300, 2-[2-[3-methoxy-4-(trifluoromethyl)pyrrolidin-1-yl]-3-quinolyl]-4-oxo-1H-1,6-naphthyridine-5-carboxamide] | < 500 nM |
| N#Cc1nccc2[nH]c(-c3cc4c(nc3N3CCCC(F)(F)CC3)CCCC4)cc(=O)c12 [Compound 87, 2-[2-(4,4-difluoroazepan-1-yl)-5,6,7,8-tetrahydroquinolin-3-yl]-4-oxo-1H-1,6-naphthyridine-5-carbonitrile] | < 500 nM |
| Cc1cc(F)ccc1Oc1nc(C)c(C)cc1-c1cc(=O)c2c(C(N)=O)nccc2[nH]1 [Compound 26, 2-[2-(4-fluoro-2-methyl-phenoxy)-5,6-dimethyl-3-pyridyl]-4-oxo-1H-1,6-naphthyridine-5-carboxamide] | < 500 nM |
| Cc1c(Oc2nc3ccccc3cc2-c2cc(=O)c3c(O)cccc3[nH]2)ccc(F)c1F [Compound 14, 2-[2-(3,4-difluoro-2-methyl-phenoxy)-3-quinolyl]-5-hydroxy-1H-quinolin-4-one] | < 500 nM |
| Cc1cc(-c2cc(=O)c3ccccc3[nH]2)c(N2CCCC(F)(F)CC2)nc1C(F)(F)F [Compound 66, 2-[2-(4,4-difluoroazepan-1-yl)-5-methyl-6-(trifluoromethyl)-3-pyridyl]-1H-quinolin-4-one] | < 500 nM |
| Cc1c(Oc2ncc(C(F)(F)F)c(C)c2-c2cc(=O)c3c(C(=O)NCCC(C)O)nccc3[nH]2)ccc(F)c1F (stereo not drawn) [Compound 256, 2-[2-(3,4-difluoro-2-methyl-phenoxy)-4-methyl-5-(trifluoromethyl)-3-pyridyl]-N-(3-hydroxybutyl)-4-oxo-1H-1,6-naphthyridine-5-carboxamide] | < 500 nM |
| COC(=O)c1c(-c2cc(C)c(C(F)(F)F)nc2Oc2ccc(F)c(F)c2C)[nH]c2ccnc(C(N)=O)c2c1=O [Compound 322, methyl 5-carbamoyl-2-[2-(3,4-difluoro-2-methyl-phenoxy)-5-methyl-6-(trifluoromethyl)-3-pyridyl]-4-oxo-1H-1,6-naphthyridine-3-carboxylate] | < 500 nM |
